These are yes or no findings as the source states them, for the method shown. Binding seen in cells or lysates may run through a third protein. Some binding calls cover weakened binding; strength is not graded here. For some assays here: Where a sequence is shown, tags or fusion partners need not be part of it. Blank lines part the entries; values can stand above or below the molecule they belong to.
How the values were obtained:
[1] = target: T1, MTMR7 (FL), untagged, ectopic (human) (UniProt Q9Y216); test: co-IP; ectopic proteins; HEK293T co-transfected with GFP-PPARγ and MTMR7 (FL) for 24 h; cytosolic lysates; IP with MTMR7 (#121222) or PPARγ (#7196) Ab-conjugated beads
T1 sequence: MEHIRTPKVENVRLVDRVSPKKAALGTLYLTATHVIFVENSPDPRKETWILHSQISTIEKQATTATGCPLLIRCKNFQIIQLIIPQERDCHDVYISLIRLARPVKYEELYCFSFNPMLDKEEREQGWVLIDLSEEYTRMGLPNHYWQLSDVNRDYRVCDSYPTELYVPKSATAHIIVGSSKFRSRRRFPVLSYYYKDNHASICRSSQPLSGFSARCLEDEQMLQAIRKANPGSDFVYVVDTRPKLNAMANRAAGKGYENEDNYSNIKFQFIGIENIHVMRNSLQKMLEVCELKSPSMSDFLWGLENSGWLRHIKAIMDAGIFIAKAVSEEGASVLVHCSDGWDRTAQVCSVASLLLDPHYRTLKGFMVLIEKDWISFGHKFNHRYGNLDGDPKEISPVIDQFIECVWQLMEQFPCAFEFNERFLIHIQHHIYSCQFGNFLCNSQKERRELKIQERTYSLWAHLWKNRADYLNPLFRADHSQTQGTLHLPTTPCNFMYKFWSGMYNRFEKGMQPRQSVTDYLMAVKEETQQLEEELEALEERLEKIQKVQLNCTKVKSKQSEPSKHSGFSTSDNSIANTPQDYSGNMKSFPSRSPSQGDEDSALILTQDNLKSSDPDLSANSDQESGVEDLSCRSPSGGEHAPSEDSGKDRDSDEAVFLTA

By UniProt entry, the sequences of proteins in these tests, tags left out. Where a name states a change or a piece, a line headed by the entry shows the natural chain unless it says otherwise. Residues count along the entry.
UniProt P37231: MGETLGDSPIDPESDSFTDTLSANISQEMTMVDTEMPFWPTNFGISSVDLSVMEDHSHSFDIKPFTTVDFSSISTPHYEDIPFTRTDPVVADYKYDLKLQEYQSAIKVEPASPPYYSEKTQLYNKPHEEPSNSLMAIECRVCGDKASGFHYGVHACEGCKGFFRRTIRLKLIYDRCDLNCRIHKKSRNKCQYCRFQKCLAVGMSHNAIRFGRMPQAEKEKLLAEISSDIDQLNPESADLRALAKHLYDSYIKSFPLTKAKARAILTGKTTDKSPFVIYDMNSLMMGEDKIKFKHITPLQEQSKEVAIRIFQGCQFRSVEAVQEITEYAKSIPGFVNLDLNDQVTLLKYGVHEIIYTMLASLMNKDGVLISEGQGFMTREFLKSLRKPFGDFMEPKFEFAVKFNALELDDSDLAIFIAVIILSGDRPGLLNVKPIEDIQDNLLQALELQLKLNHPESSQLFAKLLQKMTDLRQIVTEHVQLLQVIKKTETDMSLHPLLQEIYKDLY
GFP-PPARγ: residues 29-505 of P37231

[2] = target: Peroxisome proliferator-activated receptor-gamma (PPARγ), endogenous (human (endogenous in SW480 and HCT116)) (UniProt P37231); test: co-IP; endogenous proteins; cytosolic lysates of normal cycling HCT116 cells after subcellular fractionation; IP with MTMR7 or PPARγ Ab-conjugated or unconjugated beads; IB with MTMR7 Ab
PPARγ, untagged, ectopic = PPARγ, untagged, ectopic (UniProt P37231); test: proximity ligation; HEK293T co-transfected for 24 h with untagged PPARγ and GFP-MTMR7 FL, or with untagged MTMR7 FL and GFP-PPARγ; PPARγ (#2435) or MTMR7 (#121222) Ab together with GFP Ab; immunofluorescence microscopy
GFP-PPARγ [3] = target: GFP-PPARγ (UniProt P37231); test: co-IP; ectopic proteins; HEK293T co-transfected with GFP-PPARγ and MTMR7 (FL) for 24 h; cytosolic lysates; IP with MTMR7 (#121222) or PPARγ (#7196) Ab-conjugated beads
GFP-PPARγ [4] = target: GFP-PPARγ (UniProt P37231); test: proximity ligation; HEK293T co-transfected for 24 h with untagged PPARγ and GFP-MTMR7 FL, or with untagged MTMR7 FL and GFP-PPARγ; PPARγ (#2435) or MTMR7 (#121222) Ab together with GFP Ab; immunofluorescence microscopy

binding [2]: binds
B1: Myotubularin-related protein 7 (MTMR7), endogenous full-length 76 kDa (protein, UniProt Q9Y216 1-660)
chain: MEHIRTPKVENVRLVDRVSPKKAALGTLYLTATHVIFVENSPDPRKETWILHSQISTIEKQATTATGCPLLIRCKNFQIIQLIIPQERDCHDVYISLIRLARPVKYEELYCFSFNPMLDKEEREQGWVLIDLSEEYTRMGLPNHYWQLSDVNRDYRVCDSYPTELYVPKSATAHIIVGSSKFRSRRRFPVLSYYYKDNHASICRSSQPLSGFSARCLEDEQMLQAIRKANPGSDFVYVVDTRPKLNAMANRAAGKGYENEDNYSNIKFQFIGIENIHVMRNSLQKMLEVCELKSPSMSDFLWGLENSGWLRHIKAIMDAGIFIAKAVSEEGASVLVHCSDGWDRTAQVCSVASLLLDPHYRTLKGFMVLIEKDWISFGHKFNHRYGNLDGDPKEISPVIDQFIECVWQLMEQFPCAFEFNERFLIHIQHHIYSCQFGNFLCNSQKERRELKIQERTYSLWAHLWKNRADYLNPLFRADHSQTQGTLHLPTTPCNFMYKFWSGMYNRFEKGMQPRQSVTDYLMAVKEETQQLEEELEALEERLEKIQKVQLNCTKVKSKQSEPSKHSGFSTSDNSIANTPQDYSGNMKSFPSRSPSQGDEDSALILTQDNLKSSDPDLSANSDQESGVEDLSCRSPSGGEHAPSEDSGKDRDSDEAVFLTA

binding (GFP-PPARγ [3]): binds | binding (GFP-PPARγ [4]): binds
B3: MTMR7 (FL), untagged, ectopic (protein, UniProt Q9Y216-1 1-660)
chain: MEHIRTPKVENVRLVDRVSPKKAALGTLYLTATHVIFVENSPDPRKETWILHSQISTIEKQATTATGCPLLIRCKNFQIIQLIIPQERDCHDVYISLIRLARPVKYEELYCFSFNPMLDKEEREQGWVLIDLSEEYTRMGLPNHYWQLSDVNRDYRVCDSYPTELYVPKSATAHIIVGSSKFRSRRRFPVLSYYYKDNHASICRSSQPLSGFSARCLEDEQMLQAIRKANPGSDFVYVVDTRPKLNAMANRAAGKGYENEDNYSNIKFQFIGIENIHVMRNSLQKMLEVCELKSPSMSDFLWGLENSGWLRHIKAIMDAGIFIAKAVSEEGASVLVHCSDGWDRTAQVCSVASLLLDPHYRTLKGFMVLIEKDWISFGHKFNHRYGNLDGDPKEISPVIDQFIECVWQLMEQFPCAFEFNERFLIHIQHHIYSCQFGNFLCNSQKERRELKIQERTYSLWAHLWKNRADYLNPLFRADHSQTQGTLHLPTTPCNFMYKFWSGMYNRFEKGMQPRQSVTDYLMAVKEETQQLEEELEALEERLEKIQKVQLNCTKVKSKQSEPSKHSGFSTSDNSIANTPQDYSGNMKSFPSRSPSQGDEDSALILTQDNLKSSDPDLSANSDQESGVEDLSCRSPSGGEHAPSEDSGKDRDSDEAVFLTA

Continued, molecule first:

Molecule: GFP-PPARγ (from UniProt P37231-2 1-477)
binding [1]: binds

B2: GFP-MTMR7 FL (protein, UniProt Q9Y216-1 1-660)
chain: MEHIRTPKVENVRLVDRVSPKKAALGTLYLTATHVIFVENSPDPRKETWILHSQISTIEKQATTATGCPLLIRCKNFQIIQLIIPQERDCHDVYISLIRLARPVKYEELYCFSFNPMLDKEEREQGWVLIDLSEEYTRMGLPNHYWQLSDVNRDYRVCDSYPTELYVPKSATAHIIVGSSKFRSRRRFPVLSYYYKDNHASICRSSQPLSGFSARCLEDEQMLQAIRKANPGSDFVYVVDTRPKLNAMANRAAGKGYENEDNYSNIKFQFIGIENIHVMRNSLQKMLEVCELKSPSMSDFLWGLENSGWLRHIKAIMDAGIFIAKAVSEEGASVLVHCSDGWDRTAQVCSVASLLLDPHYRTLKGFMVLIEKDWISFGHKFNHRYGNLDGDPKEISPVIDQFIECVWQLMEQFPCAFEFNERFLIHIQHHIYSCQFGNFLCNSQKERRELKIQERTYSLWAHLWKNRADYLNPLFRADHSQTQGTLHLPTTPCNFMYKFWSGMYNRFEKGMQPRQSVTDYLMAVKEETQQLEEELEALEERLEKIQKVQLNCTKVKSKQSEPSKHSGFSTSDNSIANTPQDYSGNMKSFPSRSPSQGDEDSALILTQDNLKSSDPDLSANSDQESGVEDLSCRSPSGGEHAPSEDSGKDRDSDEAVFLTA
binding (PPARγ, untagged, ectopic): binds

Reference: article PMC7286916
